Source: PubChem BioAssay AID1159579 (Peter MacCallum Cancer Centre, 2015)

- Assay: 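Follow-up screen seeking modulators of motility in lymphatic endothelial cells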 (follow-up of hits)
- System: human dermal lymphatic endothelial cells
- Reagents: single siRNA against human genes, 25 nM
- Detection: 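High content images of wound closure area and cell nuclei counts, each the average of two wells, expressed against mock transfection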
- Reading the numbers: migration relative to mock: higher = more migration into the scratch; mean nuclei count: higher = more cells remaining
- Hit rule: 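Called active when the migration ratio is 0.6 or lower (impaired) or 1.3 or higher (accelerated), but inactive whenever the mean nuclei count falls under 3300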
- Meaning of the calls: active = migration changed (impaired or accelerated); inactive = no migration change, or too few cells
Shown is one part, drawn at random, of about 2,000 reagents. Of all reagents, 549 (27%) got an active call. 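Some migration ratios are negative; siRNAs with too few cells are inactive whatever their migration ratio.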 Entries without a mark were called inactive. The numbers tell different reagents against one gene apart. Reagent sequences are not shown. Not given: the time to read-out.

With ATM #1, what was measured?
migration relative to mock: 0.44 (active); migration and cell number class: migration reduced; mean nuclei count: 6151

How did the screen score ATM #2?
migration relative to mock: 0.64; migration and cell number class: no change in migration or cell number; mean nuclei count: 4791

With ATM #3, what was measured?
migration relative to mock: 0.48 (active); migration and cell number class: migration reduced; mean nuclei count: 4564

For ATM #4, what was measured?
migration relative to mock: 0.72; migration and cell number class: no change in migration or cell number; mean nuclei count: 6493

With U2AF1L4 #1, what does the deposit list?
migration relative to mock: 1.04; migration and cell number class: no change in migration or cell number; mean nuclei count: 6021

Which result is listed for U2AF1L4 #2?
migration relative to mock: 0.55 (active); migration and cell number class: migration reduced; mean nuclei count: 5206

With U2AF1L4 #3, what does the deposit list?
migration relative to mock: 0.72; migration and cell number class: no change in migration or cell number; mean nuclei count: 4995

How did the screen score U2AF1L4 #4?
migration relative to mock: 0.78; migration and cell number class: no change in migration or cell number; mean nuclei count: 5496

With RNASE7 #1, what was measured?
migration relative to mock: 0.86; migration and cell number class: no change in migration or cell number; mean nuclei count: 5800

With RNASE7 #2, what does the deposit list?
migration relative to mock: 0.55 (active); migration and cell number class: migration reduced; mean nuclei count: 6784

With RNASE7 #3, how do the results read?
migration relative to mock: 0.29 (active); migration and cell number class: migration reduced; mean nuclei count: 4117

For RNASE7 #4, how do the results read?
migration relative to mock: 0.63; migration and cell number class: no change in migration or cell number; mean nuclei count: 6308

For PI4KA #1, what was measured?
migration relative to mock: 0.38 (active); migration and cell number class: migration reduced; mean nuclei count: 5922

With PI4KA #2, what does the deposit list?
migration relative to mock: 0.76; migration and cell number class: no change in migration or cell number; mean nuclei count: 5919

What did the screen give for PI4KA #3?
migration relative to mock: 0.32 (active); migration and cell number class: migration reduced; mean nuclei count: 4968

What is on record for PI4KA #4?
migration relative to mock: 0.92; migration and cell number class: no change in migration or cell number; mean nuclei count: 5928

In a second layout: entries from further up.
gene symbol	reagent no.	migration relative to mock	migration and cell number class	mean nuclei count
ATM	4	0.72	no change in migration or cell number	6493
U2AF1L4	1	1.04	no change in migration or cell number	6021
U2AF1L4	2	0.55 (active)	migration reduced	5206
U2AF1L4	3	0.72	no change in migration or cell number	4995

More reagents:
What did the screen give for MST1R #1?
migration relative to mock: 0.68; migration and cell number class: no change in migration or cell number; mean nuclei count: 6656

For MST1R #2, what was measured?
migration relative to mock: 0.74; migration and cell number class: no change in migration or cell number; mean nuclei count: 5918

What is on record for MST1R #3?
migration relative to mock: 0.75; migration and cell number class: no change in migration or cell number; mean nuclei count: 6050

For MST1R #4, how do the results read?
migration relative to mock: 0.57 (active); migration and cell number class: migration reduced; mean nuclei count: 5165

With KIR2DL4 #1, how do the results read?
migration relative to mock: 0.8; migration and cell number class: no change in migration or cell number; mean nuclei count: 3944

With KIR2DL4 #2, what does the deposit list?
migration relative to mock: 0.55 (active); migration and cell number class: migration reduced; mean nuclei count: 5024

With KIR2DL4 #3, how do the results read?
migration relative to mock: 0.76; migration and cell number class: no change in migration or cell number; mean nuclei count: 5734

How did the screen score KIR2DL4 #4?
migration relative to mock: 1.02; migration and cell number class: no change in migration or cell number; mean nuclei count: 4998

How did the screen score TCF19 #1?
migration relative to mock: 1.14; migration and cell number class: no change in migration or cell number; mean nuclei count: 5021

How did the screen score TCF19 #2?
migration relative to mock: 0.98; migration and cell number class: no change in migration or cell number; mean nuclei count: 5832

How did the screen score TCF19 #3?
migration relative to mock: 0.64; migration and cell number class: no change in migration or cell number; mean nuclei count: 4798

What is on record for TCF19 #4?
migration relative to mock: 0.5 (active); migration and cell number class: migration reduced; mean nuclei count: 4830

With SEPTIN4 #1, what was measured?
migration relative to mock: 0.82; migration and cell number class: no change in migration or cell number; mean nuclei count: 6215

With SEPTIN4 #2, what was measured?
migration relative to mock: 0.82; migration and cell number class: no change in migration or cell number; mean nuclei count: 4972

What did the screen give for SEPTIN4 #3?
migration relative to mock: 0.2 (active); migration and cell number class: migration reduced; mean nuclei count: 4354

For SEPTIN4 #4, how do the results read?
migration relative to mock: -0.2 (active); migration and cell number class: migration reduced; mean nuclei count: 3320

With PPP6R1 #1, how do the results read?
migration relative to mock: 0.32 (active); migration and cell number class: migration reduced; mean nuclei count: 4440

How did the screen score PPP6R1 #2?
migration relative to mock: 0.95; migration and cell number class: no change in migration or cell number; mean nuclei count: 6080

For PPP6R1 #3, what does the deposit list?
migration relative to mock: 0.92; migration and cell number class: no change in migration or cell number; mean nuclei count: 4241

For PPP6R1 #4, how do the results read?
migration relative to mock: 0.2 (active); migration and cell number class: migration reduced; mean nuclei count: 4242
